Results reported in PMC7979705.
Results are given in words; binding and its absence hold for the method and conditions named. In cells and extracts the contact can be indirect. These calls come from enrichment with a bait or labelling near it, and not all partners need be listed.

Protein sequences, listed by entry. Tags and fused reporters are not part of them. Lines headed by an entry give the natural chain unless they say otherwise; changes in a name come on top.
UniProt Q09472: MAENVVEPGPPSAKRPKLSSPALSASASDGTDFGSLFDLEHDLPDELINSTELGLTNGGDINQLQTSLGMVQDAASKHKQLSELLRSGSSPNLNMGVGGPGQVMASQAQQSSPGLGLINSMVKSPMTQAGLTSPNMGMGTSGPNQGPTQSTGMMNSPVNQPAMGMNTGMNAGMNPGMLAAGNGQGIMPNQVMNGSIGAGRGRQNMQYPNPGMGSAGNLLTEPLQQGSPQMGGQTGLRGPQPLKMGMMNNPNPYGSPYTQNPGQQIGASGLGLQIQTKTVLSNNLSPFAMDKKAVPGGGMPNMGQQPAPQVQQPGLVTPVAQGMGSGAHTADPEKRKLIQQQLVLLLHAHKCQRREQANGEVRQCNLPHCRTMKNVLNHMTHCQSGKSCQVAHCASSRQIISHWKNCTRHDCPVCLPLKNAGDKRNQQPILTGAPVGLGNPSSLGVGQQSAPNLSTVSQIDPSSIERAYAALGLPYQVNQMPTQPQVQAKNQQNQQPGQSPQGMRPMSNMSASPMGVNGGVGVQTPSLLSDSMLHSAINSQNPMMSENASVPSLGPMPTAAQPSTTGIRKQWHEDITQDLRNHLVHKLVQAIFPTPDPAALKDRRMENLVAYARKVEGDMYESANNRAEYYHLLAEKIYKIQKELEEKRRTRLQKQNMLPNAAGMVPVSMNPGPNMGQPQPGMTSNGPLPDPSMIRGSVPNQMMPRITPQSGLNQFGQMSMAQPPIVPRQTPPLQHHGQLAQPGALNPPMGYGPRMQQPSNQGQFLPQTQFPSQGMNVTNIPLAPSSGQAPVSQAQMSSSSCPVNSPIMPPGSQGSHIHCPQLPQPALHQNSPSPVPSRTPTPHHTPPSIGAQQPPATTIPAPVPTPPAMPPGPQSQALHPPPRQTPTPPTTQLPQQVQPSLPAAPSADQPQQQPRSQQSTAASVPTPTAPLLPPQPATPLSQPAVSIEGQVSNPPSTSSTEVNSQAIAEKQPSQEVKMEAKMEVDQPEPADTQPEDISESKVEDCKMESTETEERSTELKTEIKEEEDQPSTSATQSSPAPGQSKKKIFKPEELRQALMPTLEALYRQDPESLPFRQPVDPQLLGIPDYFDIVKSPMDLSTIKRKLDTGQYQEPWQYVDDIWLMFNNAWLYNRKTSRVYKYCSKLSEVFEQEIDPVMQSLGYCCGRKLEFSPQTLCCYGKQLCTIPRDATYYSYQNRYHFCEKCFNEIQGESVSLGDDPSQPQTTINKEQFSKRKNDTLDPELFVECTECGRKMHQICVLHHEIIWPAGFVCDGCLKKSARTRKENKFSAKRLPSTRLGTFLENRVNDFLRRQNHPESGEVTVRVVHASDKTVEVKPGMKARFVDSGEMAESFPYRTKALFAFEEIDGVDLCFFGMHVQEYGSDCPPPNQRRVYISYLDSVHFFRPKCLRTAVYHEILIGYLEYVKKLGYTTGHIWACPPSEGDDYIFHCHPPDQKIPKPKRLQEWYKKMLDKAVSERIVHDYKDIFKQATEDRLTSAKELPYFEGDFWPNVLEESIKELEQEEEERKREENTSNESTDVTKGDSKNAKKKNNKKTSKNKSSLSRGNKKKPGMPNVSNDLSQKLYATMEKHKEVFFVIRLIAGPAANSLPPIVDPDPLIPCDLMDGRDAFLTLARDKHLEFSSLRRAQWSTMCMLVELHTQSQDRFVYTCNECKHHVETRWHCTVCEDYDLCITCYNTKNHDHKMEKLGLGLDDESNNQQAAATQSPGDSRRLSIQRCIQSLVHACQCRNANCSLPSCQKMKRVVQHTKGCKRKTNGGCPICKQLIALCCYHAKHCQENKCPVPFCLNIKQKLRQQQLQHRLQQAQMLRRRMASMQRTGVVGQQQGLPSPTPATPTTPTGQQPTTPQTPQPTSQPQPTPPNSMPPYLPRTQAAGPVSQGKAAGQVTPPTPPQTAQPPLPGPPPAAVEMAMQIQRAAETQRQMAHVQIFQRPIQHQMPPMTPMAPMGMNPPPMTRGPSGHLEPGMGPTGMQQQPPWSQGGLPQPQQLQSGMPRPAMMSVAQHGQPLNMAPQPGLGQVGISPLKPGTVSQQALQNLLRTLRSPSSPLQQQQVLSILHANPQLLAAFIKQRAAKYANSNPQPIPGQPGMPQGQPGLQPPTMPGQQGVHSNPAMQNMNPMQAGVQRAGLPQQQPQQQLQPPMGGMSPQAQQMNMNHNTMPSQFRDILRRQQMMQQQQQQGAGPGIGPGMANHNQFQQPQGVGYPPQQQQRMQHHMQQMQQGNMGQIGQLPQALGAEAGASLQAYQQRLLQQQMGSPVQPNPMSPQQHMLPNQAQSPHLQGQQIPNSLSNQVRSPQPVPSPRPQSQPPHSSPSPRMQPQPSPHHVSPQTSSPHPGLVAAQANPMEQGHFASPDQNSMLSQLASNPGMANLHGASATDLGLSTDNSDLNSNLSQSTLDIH

Target: p300 (endogenous) (human (endogenous in T47D and MCF7)) (UniProt Q09472)
Test: affinity purification with mass spectrometry; MCF7 and T47D cell lysates (TNE lysis buffer) purified with anti-p300 antibody or normal IgG overnight at 4 °C; SDS-PAGE, silver staining, bands analysed by LC-MS/MS

B1: E74-like ETS transcription factor 5 (ELF5), endogenous (protein, UniProt Q9UKW6 1-265)
chain: MPSLPHSHRVMLDSVTHSTFLPNASFCDPLMSWTDLFSNEEYYPAFEHQTACDSYWTSVHPEYWTKRHVWEWLQFCCDQYKLDTNCISFCNFNISGLQLCSMTQEEFVEAAGLCGEYLYFILQNIRTQGYSFFNDAEESKATIKDYADSNCLKTSGIKSQDCHSHSRTSLQSSHLWEFVRDLLLSPEENCGILEWEDREQGIFRVVKSEALAKMWGQRKKNDRMTYEKLSRALRYYYKTGILERVDRRLVYKFGKNAHGWQEDKL
B1 was tested, and the binding was “binds”.
